These are yes or no findings as the source states them, for the method shown. In cells and extracts the contact can be indirect. Some binding calls cover weakened binding; strength is not graded here. Tags and fused reporters may be left off the sequences shown.
What follows are binders tested against Flag-RBM4 (UniProt Q9BWF3) (assay: co-IP; KYSE150 cells co-transfected 24-48 h, with or without PS341 (bortezomib, 10 uM, 8 h); IP lysis buffer (50 mM Tris-HCl pH 7.4, 150 mM NaCl, 1 mM EDTA, 1% TritonX-100); lysate on anti-Flag M2 Affinity Gel at 4 °C overnight; western blot; in Fig. 4d increasing RBM4, in Fig. 4e increasing siRBM4).

Amino acid sequences for entries named in this document (tags omitted).
UniProt Q9BWF3: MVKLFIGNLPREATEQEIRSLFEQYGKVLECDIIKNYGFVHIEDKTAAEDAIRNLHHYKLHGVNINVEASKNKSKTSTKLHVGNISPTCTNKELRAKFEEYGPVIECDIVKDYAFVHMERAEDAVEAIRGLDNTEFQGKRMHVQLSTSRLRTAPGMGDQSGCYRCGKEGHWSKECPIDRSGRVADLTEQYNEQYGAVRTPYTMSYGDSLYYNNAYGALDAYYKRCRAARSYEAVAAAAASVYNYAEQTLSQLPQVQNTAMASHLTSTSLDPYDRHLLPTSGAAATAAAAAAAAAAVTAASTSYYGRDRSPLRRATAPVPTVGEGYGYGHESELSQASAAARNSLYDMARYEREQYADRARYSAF

binding | Binder
binds | HA-LKB1(1-243) (domain or fragment, UniProt Q15831 1-243) MEVVDPQQLGMFTEGELMSVGMDTFIHRIDSTEVIYQPRRKRAKLIGKYLMGDLLGEGSYGKVKEVLDSETLCRRAVKILKKKKLRRIPNGEANVKKEIQLLRRLRHKNVIQLVDVLYNEEKQKMYMVMEYCVCGMQEMLDSVPEKRFPVCQAHGYFCQLIDGLEYLHSQGIVHKDIKPGNLLLTTGGTLKISDLGVAEALHPFAADDTCRTSQGSPAFQPPEIANGLDTFSGFKVDIWSAGV
no binding | HA-LKB1(88-243) (domain or fragment, UniProt Q15831 88-243) IPNGEANVKKEIQLLRRLRHKNVIQLVDVLYNEEKQKMYMVMEYCVCGMQEMLDSVPEKRFPVCQAHGYFCQLIDGLEYLHSQGIVHKDIKPGNLLLTTGGTLKISDLGVAEALHPFAADDTCRTSQGSPAFQPPEIANGLDTFSGFKVDIWSAGV
no binding | HA-LKB1(88-433) (domain or fragment, UniProt Q15831 88-433) IPNGEANVKKEIQLLRRLRHKNVIQLVDVLYNEEKQKMYMVMEYCVCGMQEMLDSVPEKRFPVCQAHGYFCQLIDGLEYLHSQGIVHKDIKPGNLLLTTGGTLKISDLGVAEALHPFAADDTCRTSQGSPAFQPPEIANGLDTFSGFKVDIWSAGVTLYNITTGLYPFEGDNIYKLFENIGKGSYAIPGDCGPPLSDLLKGMLEYEPAKRFSIRQIRQHSWFRKKHPPAEAPVPIPPSPDTKDRWRSMTVVPYLEDLHGADEDEDLFDIEDDIIYTQDFTVPGQVPEEEASHNGQRRGLPKAVCMNGTEAAQLSTKSRAEGRAPNPARKACSASSKIRRLSACKQQ
binds | HA-LKB1(1-317) (domain or fragment, UniProt Q15831 1-317) MEVVDPQQLGMFTEGELMSVGMDTFIHRIDSTEVIYQPRRKRAKLIGKYLMGDLLGEGSYGKVKEVLDSETLCRRAVKILKKKKLRRIPNGEANVKKEIQLLRRLRHKNVIQLVDVLYNEEKQKMYMVMEYCVCGMQEMLDSVPEKRFPVCQAHGYFCQLIDGLEYLHSQGIVHKDIKPGNLLLTTGGTLKISDLGVAEALHPFAADDTCRTSQGSPAFQPPEIANGLDTFSGFKVDIWSAGVTLYNITTGLYPFEGDNIYKLFENIGKGSYAIPGDCGPPLSDLLKGMLEYEPAKRFSIRQIRQHSWFRKKHPPAE
